These results are taken from PubChem BioAssay AID252 (DTP/NCI, 2004).

The experiment has as its system BDF1 mice, intracerebral L1210 leukemia, survival T/C. The experiment is described as follows: NCI In Vivo Anticancer Drug Screen. Data for tumor model L1210 Leukemia (intracerebral) in B6D2F1 (BDF1) mice. The conditions noted are these: higher T/C = longer survival. The method in brief: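 Mice carrying transplanted tumour were dosed with compound; survival was recorded and expressed as treated-group value (T) divided by vehicle-control value (C).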

Setting [1] is: T/C endpoint: mean survival time, dose: 1.0 mg/kg/injection, schedule: Q01DX009 (ip), vehicle: saline.

The list is a part of this screen's results and no random one: it is rich in T/C values a quarter to a half above the control, in often repeated tests (any T/C) and in doses without a T/C. Further doses and runs are listed elsewhere. T/C gives the treated animals as a percentage of the vehicle group. Some entries give survivors of the animals treated and no T/C: the source holds a T/C of zero for them, seemingly a mark for toxic or unscored doses. Some survivor counts are full or nearly so, which does not show that the dose was tolerated: the source hardly ever lists a survival T/C far under the control, and the zero likely stands for such cases as well. Counts of survivors are from the toxicity check (mostly the fifth day) where no day follows; animals may have died later. Schedule codes are those of the source, taken here to give the interval after Q, in days (D) or hours (H), and the number of doses after X. Where survival is the endpoint, this PubChem deposit counts one and a half times the control or more as active, and values a quarter to a half above the control carry no call in these data; other NCI protocols may use other cut-offs. Some entries hold several experiments; the values are given in rising order. Some schedules carry Z or #; the key to these is not given. Marks such as (2×) give the number of equal values in this list. Some T/C values carry the count of animals alive at the toxicity check (mostly the fifth day); without a count, all were alive then.

As to `S=c1nc[nH]c2nc[nH]c12`, the T/C is, setting by setting: (T/C endpoint: mean survival time, dose: 10.0 mg/kg/injection, schedule: Q01DX009 (ip), vehicle: alkali diluted with saline) 126 % of control; (T/C endpoint: mean survival time, dose: 20.0 mg/kg/injection, schedule: Q01DX009 (ip), vehicle: alkali diluted with saline) 136 % of control; (T/C endpoint: mean survival time, dose: 40.0 mg/kg/injection, schedule: Q01DX009 (ip), vehicle: alkali diluted with saline) 141 % of control; (T/C endpoint: median survival time, dose: 800.0 mg/kg/injection, schedule: Q01DX001 (oral), vehicle: saline with Tween-80) 125 % of control; (T/C endpoint: median survival time, dose: 1600.0 mg/kg/injection, schedule: Q01DX001 (oral), vehicle: saline with Tween-80) 129 % of control.
As for `C=CCOCCN1CCN(CCCN2c3ccccc3Sc3ccc(C(F)(F)F)cc32)CC1`, the survivor count is, setting by setting: (T/C endpoint: mean survival time, dose: 3.12 mg/kg/injection, schedule: Q01DX009 (ip), vehicle: saline) 2 of 6; (T/C endpoint: mean survival time, dose: 6.25 mg/kg/injection, schedule: Q01DX009 (ip), vehicle: saline) 3 of 6; (T/C endpoint: mean survival time, dose: 12.5 mg/kg/injection, schedule: Q01DX009 (ip), vehicle: saline) 0 of 6; (T/C endpoint: mean survival time, dose: 25.0 mg/kg/injection, schedule: Q04DX003 (ip), vehicle: saline) 4 of 6; (T/C endpoint: mean survival time, dose: 35.0 mg/kg/injection, schedule: Q04DX003 (ip), vehicle: saline) 2 of 6; (T/C endpoint: mean survival time, dose: 50.0 mg/kg/injection, schedule: Q04DX003 (ip), vehicle: saline) 1 of 6.
For the compound `COc1cccnc1/C=N/NC(N)=S`, the survivor count (T/C endpoint: median survival time, dose: 24.0 mg/kg/injection, schedule: Q01DX009 (ip), vehicle: saline with Tween-80) was 0 of 6.
Turning to `C[C@@H]1CN1C1=CC(=O)C(N2C[C@H]2C)=CC1=O`, the survivor count is 5 of 6 (T/C endpoint: mean survival time, dose: 16.0 mg/kg/injection, schedule: Q01DX009 (ip), vehicle: Klucel (hydroxypropylcellulose) (HPC)); 2 of 6 (T/C endpoint: mean survival time, dose: 32.0 mg/kg/injection, schedule: Q01DX009 (ip), vehicle: Klucel (hydroxypropylcellulose) (HPC)); 0 of 6 (T/C endpoint: mean survival time, dose: 64.0 mg/kg/injection, schedule: Q01DX009 (ip), vehicle: Klucel (hydroxypropylcellulose) (HPC)).
Regarding `O=NN(CCCl)C(=O)NC1CCS(=O)(=O)CC1`, under “T/C endpoint: mean survival time, dose: 5.0 mg/kg/injection, schedule: Q01DX001 (ip), vehicle: carboxymethylcellulose (CMC)”, the T/C was 141 % of control.
As for `CCOC(N)=O`, the survivor count (T/C endpoint: mean survival time, dose: 2390.0 mg/kg/injection, schedule: Q01DX001 (ip), vehicle: saline) is reported as 1 of 10.
In the case of `Nc1n[nH]c(N)n1`, the T/C runs as follows: (T/C endpoint: mean survival time, dose: 500.0 mg/kg/injection, schedule: Q01DX Z (ip), vehicle: saline) 125 % of control; (T/C endpoint: mean survival time, dose: 500.0 mg/kg/injection, schedule: Q03HX024 (ip), vehicle: saline) 128 % of control.
Turning to `CC12CC3(C)CC(C)(C1)CC(NC(=O)N(CCF)N=O)(C2)C3`, the T/C runs as follows: (T/C endpoint: mean survival time, dose: 124.0 mg/kg/injection, schedule: Q01DX001 (ip), vehicle: other) 127 % of control; (T/C endpoint: mean survival time, dose: 187.0 mg/kg/injection, schedule: Q01DX001 (ip), vehicle: other) 137 % of control [9 of 10 alive]. For the setting “T/C endpoint: mean survival time, dose: 280.0 mg/kg/injection, schedule: Q01DX001 (ip), vehicle: other”, the survivor count is given as 0 of 10.
As for `O=NN(CCCl)C(=O)Nc1cccc(C(=O)O)c1`, for the setting “T/C endpoint: mean survival time, dose: 27.0 mg/kg/injection, schedule: Q01DX001 (ip), vehicle: carboxymethylcellulose (CMC)”, the survivor count is 6 of 6.
With `C=CC(CN1CC1)OC(C)=O` (centres undefined), the T/C is 139 % of control (T/C endpoint: mean survival time, dose: 3.75 mg/kg/injection, schedule: Q01DX Z (ip), vehicle: saline); 133 % of control (T/C endpoint: mean survival time, dose: 7.5 mg/kg/injection, schedule: Q01DX Z (ip), vehicle: saline); 129 % of control (T/C endpoint: mean survival time, dose: 16.75 mg/kg/injection, schedule: Q01DX001 (ip), vehicle: saline); 125 % of control (T/C endpoint: mean survival time, dose: 20.0 mg/kg/injection, schedule: Q01DX Z (ip), vehicle: saline); 135 % of control (T/C endpoint: mean survival time, dose: 25.0 mg/kg/injection, schedule: Q01DX001 (ip), vehicle: saline).
Take `C[C@H](N)C(=O)N[C@@H]1[C@H]2C(=C(O)C[C@@H](O)[C@@H]2O)C(=O)O[C@@H]1C`: the survivor count (T/C endpoint: mean survival time, dose: 4600.0 mg/kg/injection, schedule: Q01DX001 (ip), vehicle: saline) is 2 of 10.
For `O=NN(CCF)C(=O)Nc1ccccc1`, the T/C reads like this: (T/C endpoint: mean survival time, dose: 12.0 mg/kg/injection, schedule: Q01DX001 (ip), vehicle: other) 126 % of control; (T/C endpoint: mean survival time, dose: 18.0 mg/kg/injection, schedule: Q01DX001 (ip), vehicle: other) 134 % of control. Besides, for the setting “T/C endpoint: mean survival time, dose: 27.0 mg/kg/injection, schedule: Q01DX001 (ip), vehicle: other”, the survivor count is 1 of 6.
Regarding `O=C1C(NCCO)=C(N2CC2)C(=O)C(NCCO)=C1N1CC1`, the T/C reads like this: (T/C endpoint: mean survival time, dose: 0.37 mg/kg/injection, schedule: Q01DX009 (ip), vehicle: saline) 148 % of control; (T/C endpoint: mean survival time, dose: 0.75 mg/kg/injection, schedule: Q01DX009 (ip), vehicle: saline) 131 and 148 % of control. Further, for the setting “T/C endpoint: mean survival time, dose: 1.5 mg/kg/injection, schedule: Q01DX009 (ip), vehicle: saline”, the survivor count is given as 6 of 6.
As for `CCC(=O)NC1=C(N2CC2)C(=O)C(NC(=O)CC)=C(N2CC2)C1=O`, the T/C under setting [1] was 129 % of control. Also, under “T/C endpoint: mean survival time, dose: 4.0 mg/kg/injection, schedule: Q01DX009 (ip), vehicle: saline”, the survivor count is given as 6 of 6.
For the compound `CC(=O)OCC1OC(n2cnc3c(=S)nc[nH]c32)C(OC(C)=O)C1OC(C)=O` (centres undefined), the T/C runs as follows: (T/C endpoint: mean survival time, dose: 50.0 mg/kg/injection, schedule: Q01DX Z (ip), vehicle: carboxymethylcellulose (CMC)) 131 % of control (2×); (T/C endpoint: mean survival time, dose: 100.0 mg/kg/injection, schedule: Q01DX Z (ip), vehicle: carboxymethylcellulose (CMC)) 138 % of control.
For the compound `CCOC(=O)C(CC(C)C)NC(=O)C(Cc1ccc(N(CCCl)CCCl)cc1)NC(C)=O` (centres undefined), the survivor count by setting is: (T/C endpoint: mean survival time, dose: 8.0 mg/kg/injection, schedule: Q01DX009 (ip), vehicle: DMSO) 7 of 10; (T/C endpoint: mean survival time, dose: 16.0 mg/kg/injection, schedule: Q01DX009 (ip), vehicle: DMSO) 8 of 10.
Regarding `O=NN(CCCl)C(=O)NC1Cc2ccccc2C1`, under “T/C endpoint: mean survival time, dose: 125.0 mg/kg/injection, schedule: Q01DX001 (ip), vehicle: other”, the T/C is 127 % of control.
For the compound `CCCCn1cnc2c(SC3CCCC3)ncnc21`, under “T/C endpoint: mean survival time, dose: 1000.0 mg/kg/injection, schedule: Q01DX001 (ip), vehicle: carboxymethylcellulose (CMC)”, the T/C was 125 % of control [5 of 6 alive].
As for `COCCOC1=C(N2CC2)C(=O)C(OCCOC)=C(N2CC2)C1=O`, the T/C under setting [1] is 126 % of control.
Turning to `C[C@@H](CN1CC(=O)NC(=O)C1)N1CC(=O)NC(=O)C1`, the T/C (T/C endpoint: median survival time, dose: 32.0 mg/kg/injection, schedule: Q01DX009 (ip), vehicle: water, evaluated on day 30) is 131 % of control; the T/C (T/C endpoint: median survival time, dose: 32.0 mg/kg/injection, schedule: Q01DX009 (ip), vehicle: water, evaluated on day 31) is 128 % of control; the T/C (T/C endpoint: median survival time, dose: 32.0 mg/kg/injection, schedule: Q01DX009 (ip), vehicle: water, evaluated on day 36) is 126 % of control [8 of 10 alive]; the T/C (T/C endpoint: median survival time, dose: 64.0 mg/kg/injection, schedule: Q01DX009 (ip), vehicle: water, evaluated on day 30) is 146 % of control; the T/C (T/C endpoint: median survival time, dose: 64.0 mg/kg/injection, schedule: Q01DX009 (ip), vehicle: water, evaluated on day 31) was 131 % of control; the T/C (T/C endpoint: median survival time, dose: 64.0 mg/kg/injection, schedule: Q01DX009 (ip), vehicle: water, evaluated on day 36) was 132 % of control [9 of 10 alive]. For the same compound, the T/C was 138 % of control (T/C endpoint: median survival time, dose: 128.0 mg/kg/injection, schedule: Q01DX009 (ip), vehicle: water) and 146 % of control (T/C endpoint: median survival time, dose: 256.0 mg/kg/injection, schedule: Q01DX009 (ip), vehicle: water).
As to `O=NN(CCCl)C(=O)N[C@H]1CCC[C@@H](O)C1`, the survivor count reads like this: (T/C endpoint: mean survival time, dose: 133.0 mg/kg/injection, schedule: Q01DX001 (ip), vehicle: saline with Tween-80) 10 of 10; (T/C endpoint: mean survival time, dose: 200.0 mg/kg/injection, schedule: Q01DX001 (ip), vehicle: saline with Tween-80) 6 of 10.
